Experimental data: PubChem BioAssay AID540275 (National Center for Advancing Translational Sciences (NCATS), 2011)
About 620 (0.19%) of roughly 320,000 compounds were called active. The inconclusive results got no clear call from the source; some entries with a clear call stand among them for comparison. Rule as the data show it: active = activation above about 80%; inconclusive = between about 30% and that limit; inactive = weaker than that.

By UniProt entry, the sequences of proteins in these tests, tags left out.
UniProt Q8NER1, whole entry, looked up: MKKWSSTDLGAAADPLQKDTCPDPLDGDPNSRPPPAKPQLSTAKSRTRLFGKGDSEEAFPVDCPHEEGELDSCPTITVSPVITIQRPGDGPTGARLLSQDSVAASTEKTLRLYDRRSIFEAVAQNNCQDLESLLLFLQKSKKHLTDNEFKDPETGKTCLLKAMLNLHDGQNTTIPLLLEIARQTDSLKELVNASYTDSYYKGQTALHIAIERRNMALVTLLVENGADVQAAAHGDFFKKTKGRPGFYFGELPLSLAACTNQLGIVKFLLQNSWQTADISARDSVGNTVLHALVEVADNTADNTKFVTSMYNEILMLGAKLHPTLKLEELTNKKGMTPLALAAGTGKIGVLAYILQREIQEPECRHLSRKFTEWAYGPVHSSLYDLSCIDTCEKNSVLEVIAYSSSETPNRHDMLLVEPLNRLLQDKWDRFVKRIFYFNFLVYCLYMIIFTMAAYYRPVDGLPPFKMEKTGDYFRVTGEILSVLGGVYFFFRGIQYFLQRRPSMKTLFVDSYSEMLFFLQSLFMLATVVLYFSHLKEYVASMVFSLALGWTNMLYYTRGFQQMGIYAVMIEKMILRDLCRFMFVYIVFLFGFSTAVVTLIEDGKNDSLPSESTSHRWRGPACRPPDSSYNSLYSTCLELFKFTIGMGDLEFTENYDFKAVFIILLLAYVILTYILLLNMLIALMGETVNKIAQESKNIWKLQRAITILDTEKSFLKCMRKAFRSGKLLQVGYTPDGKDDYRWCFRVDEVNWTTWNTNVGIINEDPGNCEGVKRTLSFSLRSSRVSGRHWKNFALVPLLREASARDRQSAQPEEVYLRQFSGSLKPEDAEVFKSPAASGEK

These molecules were tested against Transient receptor potential cation channel subfamily V member 1 (Homo sapiens) (UniProt Q8NER1) (assay: HTS Assay for Compounds that Act as Agonists of the Vanilloid Receptor 1). Conditions: TRPV1-expressing cells, Fluo-8 calcium influx, agonist mode; at 8.33 µM, stronger effect = higher value.
Outline: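 TRPV1-expressing cells were cultured overnight at 35.5C and loaded with Fluo-8 calcium dye for 40 to 90 min at room temperature. After a 10 s baseline, compound was added and calcium influx was read kinetically for 3 min (ex 480/em 520 nm).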
Also: 0% is about no effect.

Row | SMILES | activation
1 | CC(C)NC(=O)CN1CCN(C(=O)c2ccc3oc(CCCc4ccccc4)nc3c2)CC1 | inconclusive: 30.9%
2 | COc1cc(C(=O)Nc2ccc3c(c2)nc(C)n3C)cc(OC)c1OC | inactive: -3.37%
3 | CC(C)(CO)Nc1nc(Nc2ccccc2)nc(Nc2ccccc2)n1 | inconclusive: 57.9%
4 | COc1ccc2[nH]c3c(N4CCc5ccccc5C4)ncnc3c2c1 | inconclusive: 30%
5 | COc1ccc(NC(=O)CN2CCC(C(N)=O)(N3CCCCC3)CC2)c(OC)c1 | inconclusive: 43.9%
6 | COc1ccc(CC(=O)OCC(=O)NC(=O)NC23CC4CC(CC(C4)C2)C3)cc1 | inconclusive: 30.3%
7 | N/C(=N\OC(=O)c1ccc2c(c1)OCO2)c1ccc(Br)cc1 | inconclusive: 41%
8 | COc1ccccc1C1=NC(c2ccc(C)cc2)N=C1C (centres undefined) | inconclusive: 36.6%
9 | O=C(N/N=C/c1cc(Cl)ccc1O)c1ccncc1 | inconclusive: 44.8%
10 | Cc1ccc(CSc2nnc(-c3ccccn3)n2N)cc1 | inconclusive: 33.5%
11 | Cc1cc(NC2CCCC2)n2nc(C)c(-c3ccccc3)c2n1 | inactive: 21.5%
12 | CCOc1ccccc1/C=C/c1onc(C)c1S(=O)(=O)N1CCC(C(=O)NC(C)C)CC1 | inconclusive: 63.4%
13 | Nc1nonc1-n1nnc(C(=O)N/N=C/c2ccc(O)cc2)c1COc1ccc(F)cc1 | inconclusive: 64.1%
14 | Cc1ccnc(NC(=O)c2cccc(S(=O)(=O)N3CCN(c4ccc(F)cc4)CC3)c2)c1 | inactive: 2.76%
15 | CN(Cc1ccccc1F)C(=O)C(Cc1ccccc1)NC(=O)c1ccccc1 (centres undefined) | inconclusive: 31.5%
16 | COC(=O)c1ccc(CNC(=O)COC(=O)C2CCC(C(C)(C)C)CC2)cc1 (centres undefined) | inconclusive: 56.2%
17 | COC(=O)c1c(NC(=O)c2c(C)noc2C)sc2c1CCCCCC2 | inactive: -0.488%
18 | CCC(C)(C)NC(=O)CN(C(=O)CCC(=O)Nc1ccccn1)c1ccc2c(c1)OCO2 | inactive: 0.66%
19 | O=C(Cc1ccc(-n2cccc2)cc1)NC1CCCCC1 | inconclusive: 46.4%
20 | Cc1cccc(C)c1Nc1nnc(SCC(=O)c2ccc(Br)s2)s1 | inactive: 4.67%
21 | CC1CCN(CCCOc2ccc(OCc3ccccc3)cc2)CC1 | inactive: -0.653%
22 | O=c1c(S(=O)(=O)c2ccc(Cl)cc2)cn(Cc2ccccc2)c2ccc(F)cc12 | inconclusive: 35.8%
23 | Cc1ccc(-n2ncc3c2CC(C)(C)CC3NC(=O)c2ccccn2)cc1 (centres undefined) | inconclusive: 41%

Of the compounds above, 2 contain an aryl thioether with sulfur outside any ring:
Row | SMILES | activation
10 | Cc1ccc(CSc2nnc(-c3ccccn3)n2N)cc1 | inconclusive: 33.5%
20 | Cc1cccc(C)c1Nc1nnc(SCC(=O)c2ccc(Br)s2)s1 | inactive: 4.67%

(further entries)

Row | SMILES | activation
24 | O=C(/C=C1\NC2(CCCC2)Cc2ccccc21)N1CCOCC1 | inconclusive: 62.9%
25 | CCOc1ccc(CCNC(=O)c2cccs2)cc1OCC | inactive: 21%
26 | COc1ccc(OC)c(/C=N/NC(=O)c2[nH]ncc2Br)c1 | inactive: -0.94%
27 | Cc1ccc(C2(CC(=O)N3CCCC3)CCOC(C(C)C)C2)cc1 (centres undefined) | inconclusive: 53%
28 | CCc1nc(N2CCN(C(=O)c3ccco3)CC2)c2c3c(sc2n1)CCCC3 | inconclusive: 34.4%
29 | CCC(C(=O)NC(C)c1ccccc1)C(=O)NC(C)c1ccccc1 (centres undefined) | inactive: 7.35%
30 | Cc1cccc(CSC2=CS(=O)(=O)c3ccccc3N2)c1 | inconclusive: 30.5%
31 | COC(=O)CSCC(=O)Nc1nnc(-c2cccc(C)c2)s1 | inactive: -1.65%
32 | CC(c1ccccc1)N(CCC(c1ccccc1)C1CCOC(C)(C)C1)C(=O)c1ccco1 (centres undefined) | inconclusive: 35.2%
33 | COc1ccc(C(c2nnnn2C2CCCCC2)N2CCN(C)CC2)c(OC)c1 (centres undefined) | inconclusive: 57%
34 | Cc1sc2nc(C3CC3)nc(NCCNS(=O)(=O)c3ccccc3)c2c1C | inconclusive: 47.7%
35 | Cc1cc(NC(=O)CC2CCCC2)ccc1Br | inconclusive: 45.1%
36 | O=[N+]([O-])c1ccccc1OCCN1CCOCC1 | inactive: -1.77%
37 | NC(=O)c1c(NC(=O)c2ccccc2)sc2c1CCN(Cc1ccccc1)C2 | inactive: 27.6%
38 | CCOC(=O)C1CCCN(S(=O)(=O)c2ccc(S(=O)(=O)N(CC)CC)cc2)C1 (centres undefined) | inactive: 13.5%
39 | CC1CCCC(NC(=O)c2ccc3snnc3c2)C1C (centres undefined) | inconclusive: 58.6%
40 | CN(c1ccc(C(=O)NCc2ccncc2)cc1)S(=O)(=O)c1ccc(Cl)cc1 | inconclusive: 55.9%
41 | CCn1nc(C)cc1C(=O)N1CCCC(Nc2ccc(C(C)C)cc2)C1 (centres undefined) | active: 81.3%
42 | Cc1ccccc1-c1nnc(SC(C)C(=O)NC2CCCC2)o1 (centres undefined) | inconclusive: 44.6%
43 | COc1ccccc1NS(=O)(=O)c1ccc(NC(=O)N2CCCCC2)cc1 | inconclusive: 32.6%
44 | O=C(NC1CCN(C(=O)Nc2ccc(F)cc2)CC1)c1cccc(F)c1 | inactive: 19.4%
45 | COc1ccc(CN(C(=O)c2ccc(-c3ccccc3)[nH]2)C(C(=O)NCC2CCCO2)c2ccc(C)o2)cc1 (centres undefined) | inconclusive: 31%
46 | COc1ccc2c(=O)cc(-c3ccccc3F)oc2c1 | inconclusive: 51.1%

Row | SMILES | activation
47 | COCCN1C(=O)/C(=C/c2ccc(Oc3ccc([N+](=O)[O-])cn3)c(OC)c2)SC1=Nc1ccccc1 | inactive: 0.525%
48 | CN(C)S(=O)(=O)c1cccc(NC(=O)CCSc2ccc(Cl)cc2)c1 | inconclusive: 40.8%
49 | O=C(COC(=O)C12CC3CC(CC(C3)C1)C2)N1CCN(S(=O)(=O)c2ccccc2)CC1 | inconclusive: 65.7%
50 | Cn1c(SCC(=O)N2CCOCC2)nc2sc3c(c2c1=O)CCCC3 | inconclusive: 58%
51 | COCCNC(=S)N1CCN(c2nc(-c3cccc(OC)c3)cs2)CC1 | inconclusive: 38%
52 | O=C(Nn1c(SCc2ccc([N+](=O)[O-])cc2)nc2ccccc2c1=O)c1ccc(F)cc1 | inconclusive: 45.6%
53 | C=CCC1(CC=C)CCCN1C(=O)c1cc(COc2ccc(C)nc2)on1 | inconclusive: 38.9%
54 | CN(CC(=O)Nc1ccc(N2CCOCC2)cc1)C(=O)CCCOc1ccc(Cl)cc1Cl | inactive: 8.42%
55 | Cc1ccc(C)c(OCCC(=O)Nc2ccc3c(c2)OCO3)c1 | inconclusive: 40.6%
56 | COc1ccc(CCn2c(=N)c(C(=O)NCC3CCCO3)cc3c(=O)n4cccc(C)c4nc32)cc1 (centres undefined) | inconclusive: 60%
57 | O=C(NN1C(=O)C2C(c3ccccc3)C=CC(c3ccccc3)C2C1=O)c1ccncc1 (centres undefined) | inconclusive: 49.4%
58 | CCc1n[nH]c(=S)n1N=C1CCC(C)CC1 (centres undefined) | inactive: 0.807%
59 | Cc1sc2ncnc(NCC(O)c3ccccc3)c2c1C (centres undefined) | inconclusive: 47.3%
60 | CCOC(=O)CN1C(=O)C(CC)Oc2ccccc21 (centres undefined) | inactive: 1.1%
61 | O=C(N/N=C/c1c(O)ccc2ccccc12)c1cccc(C(F)(F)F)c1 | inconclusive: 59.7%
62 | O=C(COc1ccccc1Cl)Nc1ccc(N2CCN(C(=O)c3ccccc3)CC2)cc1 | inactive: 1.13%
63 | Cc1noc(C)c1COc1ccc(C(=O)N2CCN(c3ccccc3F)CC2)cc1 | inconclusive: 37.7%
64 | COC(=O)c1cccc(NC(=O)Nc2ccc(Cl)cc2)c1 | inconclusive: 54.4%
65 | Cc1ccc(OCC(=O)N2CCc3ccccc3C2)c(C)c1 | inconclusive: 61.4%
66 | CCOc1ccc(C(=O)Nc2ccc(-c3nc4ccccc4[nH]3)cc2)cc1[N+](=O)[O-] | inactive: 0.47%
67 | CCc1cc(C(=O)N2CCCC(CCC(=O)N3CCN(c4ccccn4)CC3)C2)no1 (centres undefined) | inactive: -3.59%
68 | CC(C)c1ccc(NC(=O)COc2ccccn2)cc1 | inactive: 0.586%
69 | Fc1cccc(Cc2noc(CN3CCSCC3)n2)c1 | inactive: 10%

Row | SMILES | activation
70 | O=C(Nc1ccc(Cl)c(S(=O)(=O)N2CCOCC2)c1)c1ccccn1 | inconclusive: 57.7%
71 | Cc1cc(C)n(-c2cc(N3CCN(S(=O)(=O)c4ccc5ccccc5c4)CC3)ccc2[N+](=O)[O-])n1 | inconclusive: 46.4%
72 | CC(C)(C)c1ccc(/C=N/OCC(=O)NCc2ccccc2)cc1 | inconclusive: 77%
73 | CCc1ccc(NC(=O)C2(C)Cc3ccccc3C(=O)O2)cc1 (centres undefined) | inconclusive: 35%
74 | Cc1ccccc1OCC(=O)Nc1ccc(Cc2ccncc2)cc1 | inconclusive: 63.9%
75 | CCOc1cc(C(=O)N2CCOCC2)ccc1OCc1ccccc1 | inconclusive: 57.8%
76 | CCOC(=O)[C@H]1[C@H]2COc3ccc(Cl)cc3[C@@H]2N2C(=O)CN(Cc3ccc(F)cc3)C(=O)[C@@]12C | inconclusive: 36.1%
77 | CCOc1ccc(C(=O)Nc2cc(C)ccn2)cc1 | inconclusive: 66.2%
78 | COc1cccc(CC(=O)Nc2ccc3c(c2)OC2(CCCC2)O3)c1 | inconclusive: 58.1%
79 | Cc1c(C(=O)OCC(=O)N2c3ccccc3CC2C)oc2ccccc12 (centres undefined) | inactive: 7.48%
80 | CCOc1ccccc1-n1c(SCC(=O)N2CCCC2)nnc1-c1ccoc1C | inconclusive: 56.4%
81 | COc1ccc(-c2nn(-c3ccccc3)cc2/C=N/NC(N)=S)cc1OC | inactive: -1.39%
82 | O=C(Cc1cccc(C(F)(F)F)c1)NCC(=O)Nc1cc(Cl)ccc1Cl | inconclusive: 39.1%
83 | Cc1cccc(OCC(=O)Nc2ccc3oc(=O)ccc3c2)c1C | inconclusive: 41.2%
84 | COc1ccc(O)c(CNn2c(-c3ccc(Br)cc3)nc3ccccc3c2=O)c1 | inactive: 6.39%
85 | Cc1cccc(C)c1N=C1C(=O)Nc2ccccc21 | inactive: -5.19%
86 | O=C(NCCSCc1ccco1)Nc1ccccc1 | inconclusive: 64.4%
87 | Cc1ccc(C(=O)Oc2oc(-c3ccco3)nc2C=Nc2ccc(Cl)cc2)cc1 | inconclusive: 55.1%
88 | O=C(Nc1cccc(S(=O)(=O)N2CCCCCC2)c1)c1ccc2ccccc2n1 | inactive: 4.38%
89 | O=C(Nc1ccc(C(=O)N2CCOCC2)cc1)Nc1ccc(Cl)cc1Cl | inconclusive: 31.7%

5 entries from above, arranged by molecular weight, descending:
Row | SMILES | activation
84 | COc1ccc(O)c(CNn2c(-c3ccc(Br)cc3)nc3ccccc3c2=O)c1 | inactive: 6.39%
89 | O=C(Nc1ccc(C(=O)N2CCOCC2)cc1)Nc1ccc(Cl)cc1Cl | inconclusive: 31.7%
70 | O=C(Nc1ccc(Cl)c(S(=O)(=O)N2CCOCC2)c1)c1ccccn1 | inconclusive: 57.7%
78 | COc1cccc(CC(=O)Nc2ccc3c(c2)OC2(CCCC2)O3)c1 | inconclusive: 58.1%
73 | CCc1ccc(NC(=O)C2(C)Cc3ccccc3C(=O)O2)cc1 (centres undefined) | inconclusive: 35%
